Experimental data published in doi:10.1101/2025.07.01.662281.
These are yes or no findings as the source states them, for the method shown. Binding seen in cells or lysates may run through a third protein. Here binding means that the protein was enriched with, or labelled near, the bait; the list need not be complete.

By UniProt entry, the sequences of proteins in these tests, tags left out. Residues count along the entry.
UniProt P63044: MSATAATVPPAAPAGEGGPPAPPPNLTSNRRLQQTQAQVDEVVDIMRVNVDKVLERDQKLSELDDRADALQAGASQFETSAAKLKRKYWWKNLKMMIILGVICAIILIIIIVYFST
UniProt P31041, residues 20-218: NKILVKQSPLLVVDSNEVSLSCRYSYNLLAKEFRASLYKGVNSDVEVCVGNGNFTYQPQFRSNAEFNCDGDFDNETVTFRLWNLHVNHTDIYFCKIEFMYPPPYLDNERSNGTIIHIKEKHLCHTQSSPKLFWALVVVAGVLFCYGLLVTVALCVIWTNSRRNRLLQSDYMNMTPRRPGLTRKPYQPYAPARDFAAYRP
UniProt P09793, residues 36-223: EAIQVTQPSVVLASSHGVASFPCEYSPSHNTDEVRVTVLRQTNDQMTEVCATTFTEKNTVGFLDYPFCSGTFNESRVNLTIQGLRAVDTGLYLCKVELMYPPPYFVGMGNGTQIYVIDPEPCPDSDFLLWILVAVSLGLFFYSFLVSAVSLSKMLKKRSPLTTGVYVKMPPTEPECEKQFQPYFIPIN
UniProt P24161, residues 22-164: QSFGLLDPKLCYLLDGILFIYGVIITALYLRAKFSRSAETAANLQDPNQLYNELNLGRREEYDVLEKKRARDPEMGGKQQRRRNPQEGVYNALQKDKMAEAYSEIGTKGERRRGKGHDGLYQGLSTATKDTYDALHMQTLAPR
UniProt P22646, residues 22-189: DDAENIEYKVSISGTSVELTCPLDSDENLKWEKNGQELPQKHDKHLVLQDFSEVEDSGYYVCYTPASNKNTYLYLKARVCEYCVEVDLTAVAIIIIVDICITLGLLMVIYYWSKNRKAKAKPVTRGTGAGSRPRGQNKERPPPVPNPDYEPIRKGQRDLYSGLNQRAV
UniProt P08920, residues 23-344: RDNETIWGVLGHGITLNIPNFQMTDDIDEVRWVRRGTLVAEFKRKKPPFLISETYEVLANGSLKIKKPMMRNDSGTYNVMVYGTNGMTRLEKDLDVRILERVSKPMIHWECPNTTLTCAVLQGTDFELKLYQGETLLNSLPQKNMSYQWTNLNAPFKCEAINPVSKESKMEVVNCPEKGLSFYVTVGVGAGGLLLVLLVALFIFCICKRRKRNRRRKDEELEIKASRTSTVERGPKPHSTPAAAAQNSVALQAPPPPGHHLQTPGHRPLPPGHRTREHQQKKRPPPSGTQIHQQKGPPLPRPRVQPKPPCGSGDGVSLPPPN
UniProt P63024: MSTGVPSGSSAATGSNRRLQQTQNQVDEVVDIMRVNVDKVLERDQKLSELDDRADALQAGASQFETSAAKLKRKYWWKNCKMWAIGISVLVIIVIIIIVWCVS
UniProt P41272, residues 24-250: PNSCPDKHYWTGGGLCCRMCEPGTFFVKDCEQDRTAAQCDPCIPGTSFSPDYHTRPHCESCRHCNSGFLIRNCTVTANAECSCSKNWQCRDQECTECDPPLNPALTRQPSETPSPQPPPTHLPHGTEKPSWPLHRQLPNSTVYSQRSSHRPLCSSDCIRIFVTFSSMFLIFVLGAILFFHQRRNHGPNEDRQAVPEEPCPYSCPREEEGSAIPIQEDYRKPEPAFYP
UniProt P13597, residues 28-537: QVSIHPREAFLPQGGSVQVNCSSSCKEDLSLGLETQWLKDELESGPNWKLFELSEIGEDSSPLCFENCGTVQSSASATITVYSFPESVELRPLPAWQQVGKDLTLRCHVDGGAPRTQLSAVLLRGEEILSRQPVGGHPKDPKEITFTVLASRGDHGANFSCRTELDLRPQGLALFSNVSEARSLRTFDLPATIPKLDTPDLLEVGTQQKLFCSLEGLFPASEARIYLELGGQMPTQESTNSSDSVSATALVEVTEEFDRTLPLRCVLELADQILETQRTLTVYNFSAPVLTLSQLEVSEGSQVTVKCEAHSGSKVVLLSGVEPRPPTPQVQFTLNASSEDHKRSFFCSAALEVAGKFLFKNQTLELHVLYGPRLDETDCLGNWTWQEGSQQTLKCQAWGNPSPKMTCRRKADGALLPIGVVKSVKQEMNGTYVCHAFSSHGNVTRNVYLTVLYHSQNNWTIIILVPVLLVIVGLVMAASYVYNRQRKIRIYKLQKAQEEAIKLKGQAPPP
UniProt Q3UVG3: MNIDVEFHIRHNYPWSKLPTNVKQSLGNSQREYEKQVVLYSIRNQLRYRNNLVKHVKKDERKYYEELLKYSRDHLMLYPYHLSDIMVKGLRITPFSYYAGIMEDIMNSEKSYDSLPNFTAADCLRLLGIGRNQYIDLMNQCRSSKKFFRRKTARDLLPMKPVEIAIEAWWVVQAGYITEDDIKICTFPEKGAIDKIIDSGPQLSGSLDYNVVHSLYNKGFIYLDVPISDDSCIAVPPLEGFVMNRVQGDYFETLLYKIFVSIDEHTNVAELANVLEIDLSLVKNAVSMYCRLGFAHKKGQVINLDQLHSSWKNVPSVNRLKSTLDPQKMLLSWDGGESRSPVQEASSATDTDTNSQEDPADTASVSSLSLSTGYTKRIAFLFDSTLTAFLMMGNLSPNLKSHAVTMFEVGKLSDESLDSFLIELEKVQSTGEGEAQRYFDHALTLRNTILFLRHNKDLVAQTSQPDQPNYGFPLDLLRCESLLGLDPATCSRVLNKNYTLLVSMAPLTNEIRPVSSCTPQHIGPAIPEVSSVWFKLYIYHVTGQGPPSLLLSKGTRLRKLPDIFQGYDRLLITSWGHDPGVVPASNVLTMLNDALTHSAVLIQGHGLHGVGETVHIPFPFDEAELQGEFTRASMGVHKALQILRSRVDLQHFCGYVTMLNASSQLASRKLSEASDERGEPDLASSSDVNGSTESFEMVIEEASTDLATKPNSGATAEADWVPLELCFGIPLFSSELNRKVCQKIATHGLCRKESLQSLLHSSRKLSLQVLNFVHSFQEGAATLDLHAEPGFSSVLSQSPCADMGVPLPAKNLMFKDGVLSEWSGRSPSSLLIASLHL
UniProt P01731, residues 28-247: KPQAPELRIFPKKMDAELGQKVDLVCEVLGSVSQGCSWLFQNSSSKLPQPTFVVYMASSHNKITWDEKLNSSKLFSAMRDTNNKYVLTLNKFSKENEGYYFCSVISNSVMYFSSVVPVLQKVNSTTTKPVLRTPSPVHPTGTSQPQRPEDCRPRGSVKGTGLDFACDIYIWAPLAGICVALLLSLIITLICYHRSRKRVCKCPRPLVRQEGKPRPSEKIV

Molecular target: T1, full-length Tmem127-BirA (UniProt Q8BGP5)
T1 sequence: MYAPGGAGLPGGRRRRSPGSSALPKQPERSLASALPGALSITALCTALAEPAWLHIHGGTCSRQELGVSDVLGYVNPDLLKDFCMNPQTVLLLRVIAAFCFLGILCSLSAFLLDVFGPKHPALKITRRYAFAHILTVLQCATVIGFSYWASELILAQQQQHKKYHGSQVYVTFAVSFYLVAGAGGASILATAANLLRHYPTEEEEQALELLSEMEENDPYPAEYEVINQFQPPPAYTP
Assay: proximity labelling

Row | Molecule | binding
1 | Vamp2 (from UniProt P63044 1-116) | binds
2 | CD28 (from UniProt P31041 20-218) | binds
3 | CTLA-4 (from UniProt P09793 36-223) | binds
4 | CD3ζ (from UniProt P24161-1 22-164) | binds
5 | CD44 (mouse (endogenous in CD8+ T cells)) | binds
6 | CD3ε (from UniProt P22646 22-189) | binds
7 | CD2 (from UniProt P08920 23-344) | binds
8 | Vamp3 (from UniProt P63024 1-103) | binds
9 | CD27 (from UniProt P41272 24-250) | binds
10 | Icam1 (from UniProt P13597 28-537) | binds
11 | Fam91a1 (from UniProt Q3UVG3 1-837) | binds
12 | CD8α (from UniProt P01731 28-247) | binds
13 | CD3γ (protein, UniProt P11942 23-182) QTNKAKNLVQVDGSRGDGSVLLTCGLTDKTIKWLKDGSIISPLNATKNTWNLGNNAKDPRGTYQCQGAKETSNPLQVYYRMCENCIELNIGTISGFIFAEVISIFFLALGVYLIAGQDGVRQSRASDKQTLLQNEQLYQPLKDREYDQYSHLQGNQLRKK | binds
14 | CD86 (protein, UniProt P42082 24-309) VSVETQAYFNGTAYLPCPFTKAQNISLSELVVFWQDQQKLVLYEHYLGTEKLDSVNAKYLGRTSFDRNNWTLRLHNVQIKDMGSYDCFIQKKPPTGSIILQQTLTELSVIANFSEPEIKLAQNVTGNSGINLTCTSKQGHPKPKKMYFLITNSTNEYGDNMQISQDNVTELFSISNSLSLSFPDGVWHMTVVCVLETESMKISSKPLNFTQEFPSPQTYWKEITASVTVALLLVMLLIIVCHKKPNQPSRPSNTASKLERDSNADRETINLKELEPQIASAKPNAE | binds
15 | Icos (protein, UniProt Q9WVS0 21-200) EINGSADHRMFSFHNGGVQISCKYPETVQQLKMRLFREREVLCELTKTKGSGNAVSIKNPMLCLYHLSNNSVSFFLNNPDSSQGSYYFCSLSIFDPPPFQERNLSGGYLHIYESQLCCQLKLWLPVGCAAFVVVLLFGCILIIWFSKKKYGSSVHDPNSEYMFMAAVNTNKKSRLAGVTS | binds
16 | LAT (protein, UniProt O54957 1-242) MEADALSPVGLGLLLLPFLVTLLAALCVRCRELPVSYDSTSTESLYPRSILIKPPQITVPRTPAVSYPLVTSFPPLRQPDLLPIPRSPQPLGGSHRMPSSQQNSDDANSVASYENQEPACKNVDADEDEDDYPNGYLVVLPDSSPAAVPVVSSAPVPSNPDLGDSAFSVESCEDYVNVPESEESAEASLDGSREYVNVSPEQQPVTRAELASVNSQEVEDEGEEEGVDGEEAPDYENLQELN | binds
17 | Slamf1 (protein, UniProt Q9QUM4 25-343) TGGGVMDCPVILQKLGQDTWLPLTNEHQINKSVNKSVRILVTMATSPGSKSNKKIVSFDLSKGSYPDHLEDGYHFQSKNLSLKILGNRRESEGWYLVSVEENVSVQQFCKQLKLYEQVSPPEIKVLNKTQENENGTCSLLLACTVKKGDHVTYSWSDEAGTHLLSRANRSHLLHITLSNQHQDSIYNCTASNPVSSISRTFNLSSQACKQESSSESSPWMQYTLVPLGVVIIFILVFTAIIMMKRQGKSNHCQPPVEEKSLTIYAQVQKSGPQEKKLHDALTDQDPCTTIYVAATEPAPESVQEPNPTTVYASVTLPES | binds
18 | CD3δ (protein, UniProt P04235 22-173) FKIQVTEYEDKVFVTCNTSVMHLDGTVEGWFAKNKTLNLGKGVLDPRGIYLCNGTEQLAKVVSSVQVHYRMCQNCVELDSGTMAGVIFIDLIATLLLALGVYCFAGHETGRPSGAAEVQALLKNEQLYQPLRDREDTQYSRLGGNWPRNKKS | binds
19 | H2-T23 (protein, UniProt P06339 21-357) MHC heavy: SPHSLRYFTTAVSRPGLGEPRFIIVGYVDDTQFVRFDSDAENPRMEPRARWIEQEGPEYWERETWKARDMGRNFRVNLRTLLGYYNQSNDESHTLQWMYGCDVGPDGRLLRGYCQEAYDGQDYISLNEDLRSWTANDIASQISKHKSEAVDEAHQQRAYLQGPCVEWLHRYLRLGNETLQRSDPPKAHVTHHPRSEDEVTLRCWALGFYPADITLTWQLNGEELTQDMELVETRPAGDGTFQKWAAVVVPLGKEQYYTCHVYHEGLPEPLTLRWEPPPSTVSNMVIIAVLVVLGAVIILGAVVAFVMKRRRHIGVKGCYAHVLGSKSFQTSDWPQKA | binds
20 | IL-2rb (receptor, UniProt P16297 27-539) AVKNCSHLECFYNSRANVSCMWSHEEALNVTTCHVHAKSNLRHWNKTCELTLVRQASWACNLILGSFPESQSLTSVDLLDINVVCWEEKGWRRVKTCDFHPFDNLRLVAPHSLQVLHIDTQRCNISWKVSQVSHYIEPYLEFEARRRLLGHSWEDASVLSLKQRQQWLFLEMLIPSTSYEVQVRVKAQRNNTGTWSPWSQPLTFRTRPADPMKEILPMSWLRYLLLVLGCFSGFFSCVYILVKCRYLGPWLKTVLKCHIPDPSEFFSQLSSQHGGDLQKWLSSPVPLSFFSPSGPAPEISPLEVLDGDSKAVQLLLLQKDSAPLPSPSGHSQASCFTNQGYFFFHLPNALEIESCQVYFTYDPCVEEEVEEDGSRLPEGSPHPPLLPLAGEQDDYCAFPPRDDLLLFSPSLSTPNTAYGGSRAPEERSPLSLHEGLPSLASRDLMGLQRPLERMPEGDGEGLSANSSGEQASVPEGNLHGQDQDRGQGPILTLNTDAYLSLQELQAQDSVHLI | binds
21 | IL-4R (receptor, UniProt P16382 26-810) IKVLGEPTCFSDYIRTSTCEWFLDSAVDCSSQLCLHYRLMFFEFSENLTCIPRNSASTVCVCHMEMNRPVQSDRYQMELWAEHRQLWQGSFSPSGNVKPLAPDNLTLHTNVSDEWLLTWNNLYPSNNLLYKDLISMVNISREDNPAEFIVYNVTYKEPRLSFPINILMSGVYYTARVRVRSQILTGTWSEWSPSITWYNHFQLPLIQRLPLGVTISCLCIPLFCLFCYFSITKIKKIWWDQIPTPARSPLVAIIIQDAQVPLWDKQTRSQESTKYPHWKTCLDKLLPCLLKHRVKKKTDFPKAAPTKSLQSPGKAGWCPMEVSRTVLWPENVSVSVVRCMELFEAPVQNVEEEEDEIVKEDLSMSPENSGGCGFQESQADIMARLTENLFSDLLEAENGGLGQSALAESCSPLPSGSGQASVSWACLPMGPSEEATCQVTEQPSHPGPLSGSPAQSAPTLACTQVPLVLADNPAYRSFSDCCSPAPNPGELAPEQQQADHLEEEEPPSPADPHSSGPPMQPVESWEQILHMSVLQHGAAAGSTPAPAGGYQEFVQAVKQGAAQDPGVPGVRPSGDPGYKAFSSLLSSNGIRGDTAAAGTDDGHGGYKPFQNPVPNQSPSSVPLFTFGLDTELSPSPLNSDPPKSPPECLGLELGLKGGDWVKAPPPADQVPKPFGDDLGFGIVYSSLTCHLCGHLKQHHSQEEGGQSPIVASPGCGCCYDDRSPSLGSLSGALESCPEGIPPEANLMSAPKTPSNLSGEGKGPGHSPVPSQTTEVPVGALGIAVS | binds
22 | Ifngr1 (receptor, UniProt P15261 26-477) ALTSTEDPEPPSVPVPTNVLIKSYNLNPVVCWEYQNMSQTPIFTVQVKVYSGSWTDSCTNISDHCCNIYEQIMYPDVSAWARVKAKVGQKESDYARSKEFLMCLKGKVGPPGLEIRRKKEEQLSVLVFHPEVVVNGESQGTMFGDGSTCYTFDYTVYVEHNRSGEILHTKHTVEKEECNETLCELNISVSTLDSRYCISVDGISSFWQVRTEKSKDVCIPPFHDDRKDSIWILVVAPLTVFTVVILVFAYWYTKKNSFKRKSIMLPKSLLSVVKSATLETKPESKYSLVTPHQPAVLESETVICEEPLSTVTAPDSPEAAEQEELSKETKALEAGGSTSAMTPDSPPTPTQRRSFSLLSSNQSGPCSLTAYHSRNGSDSGLVGSGSSISDLESLPNNNSETKMAEHDPPPVRKAPMASGYDKPHMLVDVLVDVGGKESLMGYRLTGEAQELS | binds
23 | IL-27ra (receptor, UniProt O70394 25-623) TRPHGSPGPLQCYSVGPLGILNCSWEPLGDLETPPVLYHQSQKYHPNRVWEVKVPSKQSWVTIPREQFTMADKLLIWGTQKGRPLWSSVSVNLETQMKPDTPQIFSQVDISEEATLEATVQWAPPVWPPQKVLICQFRYKECQAETWTRLEPQLKTDGLTPVEMQNLEPGTCYQVSGRCQVENGYPWGEWSSPLSFQTPFLDPEDVWVSGTVCETSGKRAALLVWKDPRPCVQVTYTVWFGAGDITTTQEEVPCCKSPVPAWMEWAVVSPGNSTSWVPPTNLSLVCLAPESAPCDVGVSSADGSPGIKVTWKQGTRKPLEYVVDWAQDGDSLDKLNWTRLPPGNLSTLLPGEFKGGVPYRITVTAVYSGGLAAAPSVWGFREELVPLAGPAVWRLPDDPPGTPVVAWGEVPRHQLRGQATHYTFCIQSRGLSTVCRNVSSQTQTATLPNLHLGSFKLWVTVSTVAGQGPPGPNLSLHLPDNRIRWKALPWFLSLWGLLLMGCGLSLASTRCLQARCLHWRHKLLPQWIWERVPDPANSNSGQPYIKEVSLPQPPKDGPILEVEEVELQPVVESPKASAPIYSGYEKHFLPTPEELGLLV | binds
24 | common gamma chain (γc), endogenous in CD8+ T cells (receptor, UniProt P34902 23-369) WSSKVLMSSANEDIKADLILTSTAPEHLSAPTLPLPEVQCFVFNIEYMNCTWNSSSEPQATNLTLHYRYKVSDNNTFQECSHYLFSKEITSGCQIQKEDIQLYQTFVVQLQDPQKPQRRAVQKLNLQNLVIPRAPENLTLSNLSESQLELRWKSRHIKERCLQYLVQYRSNRDRSWTELIVNHEPRFSLPSVDELKRYTFRVRSRYNPICGSSQQWSKWSQPVHWGSHTVEENPSLFALEAVLIPVGTMGLIITLIFVYCWLERMPPIPPIKNLEDLVTEYQGNFSAWSGVSKGLTESLQPDYSERFCHVSEIPPKGGALGEGPGGSPCSLHSPYWPPPCYSLKPEA | binds
25 | Vamp5 (protein, UniProt Q9Z2P8 1-102) MAGKELKQCQQQADEVTEIMLNNFDKVLERHGKLAELEQRSDQLLDMSSAFSKTTKTLAQQKRWENIRCRVYLGLAVAVGLLIILIVLLVVFLPSGGDSSKP | binds
